Test results from publication PMC7819943, “Rice protein-binding microarrays: a tool to detect cis-acting elements near promoter regions in rice”.
The list shows a part of the results.

By UniProt entry, the sequences of proteins in these tests, tags left out.
UniProt Q0JBA9, entry or part of it: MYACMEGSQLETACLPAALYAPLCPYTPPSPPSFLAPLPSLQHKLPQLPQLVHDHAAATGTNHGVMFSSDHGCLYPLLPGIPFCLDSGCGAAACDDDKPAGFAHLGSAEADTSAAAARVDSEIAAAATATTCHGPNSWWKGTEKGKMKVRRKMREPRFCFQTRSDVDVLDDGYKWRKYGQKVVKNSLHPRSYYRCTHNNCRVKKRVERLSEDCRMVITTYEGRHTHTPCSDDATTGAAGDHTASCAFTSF

Biological target: OsWRKY34 (Oryza sativa, UniProt Q0JBA9 1-250)
Assay: protein-binding microarray (RPBM); PBS, 2% BSA, 51.3 ng/ul salmon testes DNA, 50 uM zinc acetate, 200 nM TF, 25 C, 1 h; high values mean tight binding
Details: protein: recombinant; tags: N-terminal polyhistidine and DsRed monomer fusion (pET32a); label: CyDye5-dUTP incorporated in the synthesized complementary strand; 3' TTTTT single-stranded linker to array surface; dsDNA, one strand shown
Method in brief: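 Binding signal is reported as fluorescence intensity per feature (arbitrary units) from an Axon 4000B scanner. Incubation used 200 nM of each Ni–NTA-purified, N-terminally polyhistidine- and DsRed-fused transcription factor from E. coli BL21-CodonPlus on a double-stranded custom Agilent array for 1 h at 25 °C, with 50 µM zinc acetate in the buffer, followed by washing.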

Sequence | binding signal
CCACCGCCGCCTCCGCCGCCACCACGCACGCCAGGATCATCGGAGTCACCTAGTGCAG | 8450 fluorescence intensity (a.u.)
GTTGGTTTGGTTAGAAGTTATCTTTTGTGTAATCATTTTTCGGAGTCACCTAGTGCAG | 12200 fluorescence intensity (a.u.)
GTTTTAATAATGTGTTTGTTTTGGGTTAAAAACCATACTACGGAGTCACCTAGTGCAG | 8340 fluorescence intensity (a.u.)
TCAGTACTATGGTTTTTTTTTTTTTTGCTCAGCAATCGACCGGAGTCACCTAGTGCAG | 8820 fluorescence intensity (a.u.)
CCCATATTCCAACGTACCCCAATACTCTTTTCATCCGGTCCGGAGTCACCTAGTGCAG | 9520 fluorescence intensity (a.u.)
GACATACCTGCATGCTCTTCAATTGAAAATCGTTTCAGTTCGGAGTCACCTAGTGCAG | 8320 fluorescence intensity (a.u.)
GGGTGAGTGGGATGGGTTGGTCCCTGGAGAGGAATATTCCCGGAGTCACCTAGTGCAG | 10300 fluorescence intensity (a.u.)
TAACATGAACTTACTCATCAATTCCACATTTTTTAGTCGCCGGAGTCACCTAGTGCAG | 9670 fluorescence intensity (a.u.)
CCAAGTATAGCTGTATCGACCATTTGCCATATCGGCTCAACGGAGTCACCTAGTGCAG | 8870 fluorescence intensity (a.u.)
TTTGTTTTATTGTTAGTGCCTAATCGTTACAAATTTCAGTCGGAGTCACCTAGTGCAG | 8390 fluorescence intensity (a.u.)
GTCTGTTTGGATACTTTGCACAATCTTTGCATCGATCTTACGGAGTCACCTAGTGCAG | 9380 fluorescence intensity (a.u.)
TTTTTGTTGACCAAATCAATTGTCCTTGTCCATCGCTATCCGGAGTCACCTAGTGCAG | 13100 fluorescence intensity (a.u.)
GTATTCTCAGGTTCGATTTCCACAAGGAACATGTGTGTCACGGAGTCACCTAGTGCAG | 9190 fluorescence intensity (a.u.)
TGGTTGAATTCTGGTTCGGGTATCCTCAATTTCGGGGTTTCGGAGTCACCTAGTGCAG | 17700 fluorescence intensity (a.u.)
AATTACCAGTTTTTTACGATGCCCTATAGCAAATTCACGTCGGAGTCACCTAGTGCAG | 8180 fluorescence intensity (a.u.)
CTCTCTCTCACAATCTGTTGGGCGCCGCAAGACTCGGAAACGGAGTCACCTAGTGCAG | 8200 fluorescence intensity (a.u.)
ATTTCTTCCATTCCATGTACTGTTTGGTTCCATTCCACCACGGAGTCACCTAGTGCAG | 9340 fluorescence intensity (a.u.)
ACGGTGTTCACCTGCAACGCCGTCCTCGCCGCGCTGCTCCCGGAGTCACCTAGTGCAG | 8940 fluorescence intensity (a.u.)
TTTGTTTGGTAAAATTTTTGGTGGGGATTGGAGTTGGAAACGGAGTCACCTAGTGCAG | 9440 fluorescence intensity (a.u.)
CTGTTACTTCACAGTTATTTTTGTTGGGTGGGGACGTGGGCGGAGTCACCTAGTGCAG | 12600 fluorescence intensity (a.u.)
AGCCGGTACCCCGTCGACGACTACTGCTGCACCGAAGCCACGGAGTCACCTAGTGCAG | 8470 fluorescence intensity (a.u.)

Sequence | binding signal
GAGTCAAACATACGCGGTCCTCACTATAACCACGTCATCTCGGAGTCACCTAGTGCAG | 8200 fluorescence intensity (a.u.)
TCTCCTCTTTCCTCTGCCGCGCTATCTATCCACCACCTCTCGGAGTCACCTAGTGCAG | 9040 fluorescence intensity (a.u.)
CCCACCACAGCACCACTTGCTCAGCTTCTCTCTCTGTAACCGGAGTCACCTAGTGCAG | 8440 fluorescence intensity (a.u.)
TATAACTTTGACTATTTATAACTTTAAAACTATTTAGTTTCGGAGTCACCTAGTGCAG | 8270 fluorescence intensity (a.u.)
GGAGTAGTAATTTGTTTTGACACAAGCATCGAGCTTTACACGGAGTCACCTAGTGCAG | 8990 fluorescence intensity (a.u.)
TACTACACTATTAATATATGGTCCAACCTGTCATACACACCGGAGTCACCTAGTGCAG | 10700 fluorescence intensity (a.u.)
GTCTGATTTATGTTCATTCCTATAGGTTTATTCTGGTGACCGGAGTCACCTAGTGCAG | 9390 fluorescence intensity (a.u.)
AGAGGAGAGGGAAGCCGCGCTGCGCGCACCACATGTTTGACGGAGTCACCTAGTGCAG | 8150 fluorescence intensity (a.u.)
TCCTATAAATTCTCCCACGCATCTAGGGCTTCGTCTCATCCGGAGTCACCTAGTGCAG | 9200 fluorescence intensity (a.u.)
CACCCATCGATCCATCCATCCATCGATCAGTTGTGAATTGCGGAGTCACCTAGTGCAG | 10600 fluorescence intensity (a.u.)
TATTATTTCACAAACATGCAAGTTCAAATTTTAACTTCTACGGAGTCACCTAGTGCAG | 8730 fluorescence intensity (a.u.)
CATCATGCAGACACACAGGACCGATCGAACAGCAAACAATCGGAGTCACCTAGTGCAG | 8350 fluorescence intensity (a.u.)
AACCACCACCGCCACCTCTCTTTGCCGCCGAAGATAAGCTCGGAGTCACCTAGTGCAG | 8570 fluorescence intensity (a.u.)
ATCCATGTCGACTCACACCCCACTAATTAATCTATTGCTACGGAGTCACCTAGTGCAG | 9020 fluorescence intensity (a.u.)
CCTCTCGTTTTCCGCGCGCACGCTTTTTAAACTGTTAAACCGGAGTCACCTAGTGCAG | 11800 fluorescence intensity (a.u.)
ACCGTGTCCGCGCTCGCCTTCAAACCGTCCCCATCCTTTTCGGAGTCACCTAGTGCAG | 10700 fluorescence intensity (a.u.)
TTCCTGTCCACGACACATTATATGCTGTTTTTTATCTTGTCGGAGTCACCTAGTGCAG | 8410 fluorescence intensity (a.u.)
CCTCTTTCTTCATTTTTTTTTTCTCCTCGGTGTCGTGGTTCGGAGTCACCTAGTGCAG | 11700 fluorescence intensity (a.u.)
GCGCATGTTTCCTTAACTGCTAGGTGTGTTTTTTATAAATCGGAGTCACCTAGTGCAG | 8340 fluorescence intensity (a.u.)
TGACGGTGTTAGCTAGGTAGTTTGTTCGTGTTCGTTCATGCGGAGTCACCTAGTGCAG | 9120 fluorescence intensity (a.u.)
TTCCCTGCTGCACCTGCTCCTTCGCCGATTGCGTCGCTTCCGGAGTCACCTAGTGCAG | 10100 fluorescence intensity (a.u.)

Fetched one by one from the entries so far, two records:
Sequence | binding signal
TATTATTTCACAAACATGCAAGTTCAAATTTTAACTTCTACGGAGTCACCTAGTGCAG | 8730 fluorescence intensity (a.u.)
TACTACACTATTAATATATGGTCCAACCTGTCATACACACCGGAGTCACCTAGTGCAG | 10700 fluorescence intensity (a.u.)
